Reference: patent US9108920B2, “Diazeniumdiolate heterocyclic derivatives” (Merck Sharp & Dohme Corp., priority 2010, dated 2015)
Some of these results come from one statement about several compounds together.

test system: Male beagle dogs; assay: canine telemetry protocol, blood pressure reduction efficacy; assay type: in vivo; conditions: drop over a 1-6 hour period of time; 3 mg/kg oral gavage
Description: Compounds of the invention were evaluated for blood pressure reduction efficacy using the following canine telemetry protocol described below.
Male beagle dogs (approximately 1-3 years old) with a body weight of between 10 and 16 kg were surgically implanted with DSI radiotelemetry devices (model: TL11M2-D70-PCT). Briefly, under an inhalant anesthesia, isoflurane/oxygen mixture (1-3.5%/to effect), the body of the telemetry device was positioned and secured intra-abdominally. Subsequently, the arterial catheter of the telemetry device was passed subcutaneously to the inguinal area and introduced into the femoral artery and advanced to the level of the descending aorta. The catheter was secured with 2-0 silk ligatures. The muscle and underlying fascia was closed over the catheter using absorbable suture and the skin was closed using non-absorbable suture. The animals were allowed a minimum recovery period of 2 weeks between surgery and the evaluation of test compounds.
Compound evaluation consisted of a 3 day paradigm at a 3 mg/kg dose. On the first day, no compounds were administered during a 24 hour period of baseline data collection. Blood pressure and heart rate data were collected continuously for one minute periods at 10 minute intervals. On the days of compound administration half the animals received test article with the other half receiving the vehicle used for compound formulation. All test materials were administered by oral gavage in a volume of 1 mL/kg. Data are expressed either as raw values (mm Hg or beats per minute) or as the change from baseline (average value for about 12 hours in low activity period prior to dosing).

Row | Compound | dropped blood pressure
1 | CCN(/[N+]([O-])=N/OC1CCN(C(C)=O)CC1)C(C)(C)C [Example 52, O^2-(1-acetylpiperidin-4-yl)1-(N-tert-butyl-N-ethylamino)diazen-1-ium-1,2-diolate] | at least 5 mm Hg
2 | CCN(/[N+]([O-])=N/OC1CCN(c2ccccc2)CC1)C(C)(C)C [Example 45, O^2-(1-phenylpiperidin-4-yl)1-(N-tert-butyl-N-ethylamino)diazen-1-ium-1,2-diolate] | at least 5 mm Hg
3 | O^2-{(3R)-2-oxo-1-[3-(trifluoromethyl)phenyl]pyrrolidin-3-yl}1-(N-tert-butyl-N-methylamino)diazen-1-ium-1,2-diolate [Example 65] | at least 5 mm Hg
4 | CCN(/[N+]([O-])=N/OC1CCN(Cc2ccccc2)CC1)C(C)(C)C [Example 35, O^2-(1-benzylpiperidin-4-yl)1-(N-tert-butyl-N-ethylamino)diazen-1-ium-1,2-diolate] | at least 5 mm Hg
5 | CN(/[N+]([O-])=N/O[C@@H]1CCN(c2cccc(-c3noc(=O)[nH]3)c2)C1)C(C)(C)C [Example 108, O^2-{(3R)-1-[3-(5-oxo-4,5-dihydro-1,2,4-oxadiazol-3-yl)phenyl]pyrrolidin-3-yl}1-(N-tert-butyl-N-methylamino)diazen-1-ium-1,2-diolate] | at least 5 mm Hg
6 | CN(/[N+]([O-])=N/O[C@@H]1CCN(c2cccc(-n3cccn3)c2)C1)C(C)(C)C [Example 105, O^2-{(3R)-1-[3-(1H-pyrazol-1-yl)phenyl]pyrrolidin-3-yl}1-(N-tert-butyl-N-methylamino)diazen-1-ium-1,2-diolate] | at least 5 mm Hg
7 | CC(C)(C)NC(=O)N1CC[C@@H](O/N=[N+](\[O-])N2CCCC2)C1 [Example 125, O^2-[(3R)-1-(tert-butylcarbamoyl)pyrrolidin-3-yl]1-(pyrrolidin-1-yl)diazen-1-ium-1,2-diolate] | at least 5 mm Hg
8 | CN(/[N+]([O-])=N/O[C@@H]1CCN(Cc2ccccc2)C1)C(C)(C)C [Example 28, O^2-[(3R)-1-benzylpyrrolidin-3-yl]1-(N-tert-butyl-N-methylamino)diazen-1-ium-1,2-diolate] | at least 5 mm Hg
9 | CCN(/[N+]([O-])=N/OC1CCN(c2cc(C#N)ccn2)CC1)C(C)(C)C [Example 49, O^2-[1-(4-cyanopyridin-2-yl)piperidin-4-yl]1-(N-tert-butyl-N-ethylamino)diazen-1-ium-1,2-diolate] | at least 5 mm Hg
10 | CCN(/[N+]([O-])=N/OC1CCN(c2ccc(C#N)cn2)C(=O)C1)C(C)(C)C (racemic) [Example 90, (±)-O^2-[1-(5-cyanopyridin-2-yl)-2-oxopiperidin-1-yl]-(N-tert-butyl-N-ethylamino)diazen-1-ium-1,2-diolate] | at least 5 mm Hg
11 | CN(/[N+]([O-])=N/O[C@@H]1CCN(S(=O)(=O)C(C)(C)C)C1)C(C)(C)C [Example 61, O^2-[(3R)-1-(tert-butylsulfonyl)pyrrolidin-3-yl]1-(N-tert-butyl-N-methylamino)diazen-1-ium-1,2-diolate] | at least 5 mm Hg
12 | CCN(/[N+]([O-])=N/OC1CCN(c2cccc(C#N)n2)CC1)C(C)(C)C [Example 47, O^2-[1-(6-cyanpyridin-2-yl)piperidin-4-yl]1-(N-tert-butyl-N-ethylamino)diazen-1-ium-1,2-diolate] | at least 5 mm Hg
13 | O^2-{(3R)-1-[3,5-bis(trifluoromethyl)phenyl]-2-oxopyrrolidin-3-yl}1-(N-tert-butyl-N-methylamino)diazen-1-ium-1,2-diolate [Example 66] | at least 5 mm Hg
14 | CCN(/[N+]([O-])=N/OC1CCN(C(=O)CO)CC1)C(C)(C)C [Example 54, O^2-[1-(hydroxyacetyl)piperidin-4-yl]1-(N-tert-butyl-N-ethylamino)diazen-1-ium-1,2-diolate] | at least 5 mm Hg
